PubChem BioAssay AID504804, Drosophila RNAi Screening Center | 2011

Screen: 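Fly genes whose loss lessens doxorubicin-driven cell death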 (primary screen)
Cell system: Drosophila Kc cells
Reagent: long dsRNA against Drosophila genes, 0.5 µg dsRNA per well
Time to read-out: 96 h (48 h knock-down, then 48 h drug)
Conditions: doxorubicin 5 µg/ml for 48 h, added 48 h after dsRNA
Measured: 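Luminescent ATP counts per replicate, not normalised, reflecting viable cells after 48 h dsRNA knock-down followed by 48 h of 5 µg/ml doxorubicin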
Direction: raw ATP luminescence: higher = more viable cells, protection from doxorubicin
Active means: 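Active when both duplicate wells lie at least 2 SD above the plate mean and protection is confirmed by rescreening and independent dsRNAs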
The deposit covers about 19,000 reagents; below is a random part of those with a known target gene and a result. Over the whole deposit, 47 (0.25%) are marked active. 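Signals are raw, not normalised; exact z-scores behind calls not deposited; actives needed confirmation, so some wells reaching 2 SD are inactive.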 Entries without a mark were called inactive. A plus sign joins genes that one reagent is predicted to hit.

| gene | dsRNA | raw ATP luminescence, replicate 1 | raw ATP luminescence, replicate 2 |
| --- | --- | --- | --- |
| CG13309 (GeneID 39012) | DRSC09980 | 70740 | 70727 |
| CG9117 (GeneID 33846) | DRSC03141 | 21910 | 22990 |
| nclb (GeneID 36150) | DRSC07009 | 37873 | 69907 |
| Rab9 (GeneID 35221) | DRSC03281 | 44883 | 47660 |
| spri (GeneID 31987) | DRSC17846 | 2.10e5 | 2.34e5 |
| spri (GeneID 31987) | DRSC17984 | 3.75e5 | 3.12e5 |
| spri (GeneID 31987) | DRSC17985 | 3.74e5 | 3.61e5 |
| spri (GeneID 31987) | DRSC17986 | 3.69e5 | 3.34e5 |
| spri (GeneID 31987) | DRSC17988 | 3.00e5 | 2.68e5 |
| spri (GeneID 31987) | DRSC17989 | 2.82e5 | 2.60e5 |
| CG4650 (GeneID 34859) | DRSC02767 | 55260 | 59037 |
| Elk (GeneID 37047) | DRSC07608 | 68670 | 65073 |
| CG6614 (GeneID 34583) | DRSC02974 | 79463 | 68877 |
| CG4382 (GeneID 34279) | DRSC02743 | 40993 | 72430 |
| SppL (GeneID 43128) | DRSC15228 | 62350 | 67710 |
| CG31013 (GeneID 326111) | DRSC16542 | 57400 | 40210 |
| phtf (GeneID 35583) | DRSC05023 | 81357 | 94533 |
| Art8 (GeneID 34528) | DRSC02530 | 47933 | 90573 |
| drn (GeneID 41114) | DRSC15147 | 60970 | 61410 |
| Synj (GeneID 37517) | DRSC04526 | 63907 | 59263 |
| CG11426 (GeneID 40471) | DRSC11658 | 55370 | 53320 |
| nom (GeneID 41038) | DRSC16389 | 73707 | 75537 |
| Twdlalpha (GeneID 326223) | DRSC19914 | 3.15e5 | 3.14e5 |
| Dhps (GeneID 38917) | DRSC10948 | 76487 | 82003 |
| Pk34A (GeneID 34705) | DRSC03398 | 70733 | 90497 |
| CG3702 (GeneID 33628) | DRSC00628 | 1.01e5 | 83173 |
| Octbeta3R (GeneID 3885573) | DRSC15351 | 53217 | 62767 |
| Octbeta3R (GeneID 3885573) | DRSC16191 | 49880 | 58183 |
| tud (GeneID 37417) | DRSC04719 | 65310 | 47233 |
| Atg16 (GeneID 326115) | DRSC15300 | 69640 | 44960 |
| Atg16 (GeneID 326115) | DRSC15375 | 78380 | 58700 |
| Syb (GeneID 36080) | DRSC07559 | 47230 | 45213 |
| CG7202 (GeneID 40376) | DRSC11818 | 67447 | 62973 |
| Reg-2 (GeneID 38075) | DRSC08690 | 66683 | 63627 |
| pdm3 (GeneID 35813) | DRSC06076 | 40150 | 75320 |
| pdm3 (GeneID 35813) | DRSC06490 | 38350 | 63877 |
| CG13813 (GeneID 40218) | DRSC10068 | 62413 | 70357 |
| IntS3 (GeneID 3355010) | DRSC21215 | 2.88e5 | 3.37e5 |
| Pld3 (GeneID 35384) | DRSC03167 | 87727 | 75743 |
| CG31391 (GeneID 41280) | DRSC16047 | 62770 | 57227 |
| CanB2 (GeneID 46456) | DRSC07355 | 1.60e5 | 2.17e5 |
| CG17108 (GeneID 34471) | DRSC02576 | 41497 | 64827 |

Next part (2 carried over from the part before).
| gene | dsRNA | raw ATP luminescence, replicate 1 | raw ATP luminescence, replicate 2 |
| --- | --- | --- | --- |
| CanB2 (GeneID 46456) | DRSC07355 | 1.60e5 | 2.17e5 |
| CG17108 (GeneID 34471) | DRSC02576 | 41497 | 64827 |
| TwdlZ (GeneID 318092) | DRSC19154 | 2.02e5 | 2.00e5 |
| CG3776 (GeneID 37996) | DRSC04417 | 33443 | 35870 |
| Nuak (GeneID 41256) | DRSC14414 | 49883 | 56377 |
| Nuak (GeneID 41256) | DRSC14415 | 52203 | 20503 |
| Nuak (GeneID 41256) | DRSC14416 | 53967 | 70323 |
| ninaE (GeneID 42367) | DRSC17014 | 53790 | 72950 |
| HLH3B (GeneID 31249) | DRSC18669 | 44380 | 56650 |
| HERC2 (GeneID 33035) | DRSC20566 | 3.69e5 | 3.39e5 |
| CG15894 (GeneID 31574) | DRSC18098 | 39960 | 38810 |
| CG15894 (GeneID 31574) | DRSC18099 | 20090 | 20080 |
| CG14417 (GeneID 31274) | DRSC18638 | 63090 | 43970 |
| Dyrk3 (GeneID 3885567) | DRSC21055 | 1.98e5 | 1.93e5 |
| slou (GeneID 42547) | DRSC17058 | 55430 | 43330 |
| CG33143 (GeneID 37583) | DRSC04151 | 70193 | 66160 |
| CG33143 (GeneID 37583) | DRSC04454 | 37787 | 52570 |
| ste24c + CG30461 | DRSC05639 | 2.04e5 | 1.63e5 |
| CG7231 (GeneID 34086) | DRSC03034 | 48737 | 77603 |
| CG8192 (GeneID 36723) | DRSC07101 | 64480 | 50327 |
| CG5819 (GeneID 37547) | DRSC04520 | 23987 | 36733 |
| CG6724 (GeneID 34488) | DRSC02983 | 39083 | 69310 |
| CG13022 (GeneID 39896) | DRSC09902 | 74710 | 61417 |
| Cpr65Av (GeneID 318014) | DRSC09727 | 76160 | 77523 |
| Takl2 (GeneID 42692) | DRSC15650 | 57070 | 59060 |
| CG5618 (GeneID 40241) | DRSC11780 | 25703 | 28333 |
| lbe (GeneID 42542) | DRSC16985 | 40720 | 46860 |
| peg (GeneID 50050) | DRSC15216 | 58810 | 59200 |
| CG9698 (GeneID 43629) | DRSC16539 | 57010 | 53030 |
| aub (GeneID 34524) | DRSC03486 | 80517 | 61163 |
| CG7912 (GeneID 43561) | DRSC16343 | 46800 | 45240 |
| CG15861 (GeneID 37990) | DRSC04274 | 50913 | 44180 |
| crim (GeneID 39321) | DRSC10573 | 43030 | 44327 |
| CAH3 (GeneID 31804) | DRSC17776 | 55760 | 55320 |
| CG14113 (GeneID 50287) | DRSC10116 | 89107 | 72937 |
| CG14304 (GeneID 42232) | DRSC14783 | 47410 | 43030 |
| CG17109 (GeneID 42730) | DRSC15172 | 87990 | 77260 |
| bap (GeneID 42537) | DRSC16908 | 1.81e5 | 2.00e5 |
| CG15141 (GeneID 35044) | DRSC02441 | 89723 | 88933 |
| CG15141 (GeneID 35044) | DRSC02442 | 77427 | 67263 |
| Vha68-1 (GeneID 45668) | DRSC03470 | 55143 | 90517 |
| CG42712 (retired record) (GeneID 10178815) | DRSC01038 | 2.44e5 | 2.79e5 |
| dmt (GeneID 41180) | DRSC16932 | 54747 | 63907 |
| Mat1 (GeneID 36130) | DRSC07465 | 31967 | 70343 |
| Prim2 (GeneID 44915) | DRSC11610 | 24603 | 17890 |
| KFase (GeneID 33907) | DRSC03258 | 28783 | 28010 |
| ash1 (GeneID 40133) | DRSC11325 | 19347 | 19453 |
| Kpc1 (GeneID 41826) | DRSC16107 | 44757 | 38297 |
| Cpr5C (GeneID 31510) | DRSC18340 | 42800 | 48730 |
| RpL11 (GeneID 37235) | DRSC07537 | 32600 | 60153 |
| CG15803 (GeneID 42206) | DRSC15121 | 71680 | 83960 |
| dmGlut (GeneID 47253) | DRSC02835 | 82850 | 73160 |
| CG9643 (GeneID 33504) | DRSC00722 | 26390 | 31770 |
| CG13631 (GeneID 50073) | DRSC14632 | 21887 | 21610 |
| CG14502 (GeneID 37092) | DRSC06473 | 48067 | 58233 |
| CG44837 (GeneID 5740513) | DRSC10133 | 95027 | 71643 |
| CG44837 (GeneID 5740513) | DRSC10558 | 87300 | 91543 |
| l(3)04053 (GeneID 46158) | DRSC11640 | 38287 | 39753 |
| Ns1 (GeneID 42060) | DRSC15529 | 68490 | 64800 |
| Osi18 (GeneID 40775) | DRSC12181 | 74557 | 50233 |
| Wnt6 (GeneID 34010) | DRSC02795 | 44960 | 30927 |
| CG30379 (GeneID 246578) | DRSC05070 | 88430 | 90370 |
| CG10628 (GeneID 35263) | DRSC02080 | 47593 | 42783 |
| Ugt302E1 (GeneID 53508) | DRSC15635 | 24167 | 51970 |
| CG3987 (GeneID 41822) | DRSC15531 | 49447 | 30223 |
| CG8460 (GeneID 34115) | DRSC03090 | 1.11e5 | 64280 |
| Bin1 (GeneID 41965) | DRSC16843 | 67980 | 73960 |
